The list shows a part of the results. The exact form of the protein is not confirmed.

The experiment addresses T1, ETS1 (UniProt P14921).
T1 sequence: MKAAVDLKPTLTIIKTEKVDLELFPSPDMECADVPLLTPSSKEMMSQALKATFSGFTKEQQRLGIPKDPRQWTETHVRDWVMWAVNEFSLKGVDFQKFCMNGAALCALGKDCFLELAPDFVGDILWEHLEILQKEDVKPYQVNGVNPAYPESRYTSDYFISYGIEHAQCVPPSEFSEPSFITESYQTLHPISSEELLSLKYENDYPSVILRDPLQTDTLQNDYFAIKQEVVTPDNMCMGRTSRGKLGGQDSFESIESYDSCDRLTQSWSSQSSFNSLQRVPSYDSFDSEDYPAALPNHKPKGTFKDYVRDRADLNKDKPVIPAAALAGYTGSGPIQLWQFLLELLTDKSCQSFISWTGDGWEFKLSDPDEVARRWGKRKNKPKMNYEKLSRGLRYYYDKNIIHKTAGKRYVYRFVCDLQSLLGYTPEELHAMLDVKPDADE
As to the kind of experiment: DAPPL (digital affinity profiling via proximity ligation, sequencing). The following applies: 10 mM Tris-HCl pH 7.5, 50 mM NaCl, 1 mM DTT, 4% glycerol, room temperature, 30 min; GST-TFs on glutathione beads, 16-mer random dsDNA library, 0.1% …; high values mean tight binding; double strand, one strand shown; scale: fold enrichment (6-mer frequency, TF over GST control).
For the sequence ACCTTG, the binding signal amounted to 1.18.

CTGGTA: the binding signal is 1.23. The same measure for TAACTT: 1.37. The same measure for AATTAA: 1.29; for CCACGA: 1.18. Turning to TTCTAT, the binding signal was 1.4. The same measure for CGTACG: 1; for ACCTCA: 1.15. The same measure for CGAATC: 0.935; for AATATC: 1.46. In the case of CAAATG, the binding signal was 1.13.

For CTCGGC, the binding signal amounted to 1.34.

Consider GCACTA, for which the binding signal stood at 1.12. The same measure for AATAGG: 1.09; for TTGCTG: 1.21; for ACTGAC: 1.32. Sequence CCGCAG displayed a binding signal of 1.01. The same measure for AAGCCT: 1.26; for ACCCGA: 1.06; for GTTCTC: 1.37. The same measure for CCCCTG: 1.2; for CCCAAC: 1.1; for ATTGGT: 1.29. The same measure for ACATGT: 1.06; for CTCCCA: 1.35; for GATGTT: 1.23. With CGCGCT, the binding signal is 1.25. GTTCAA came in with a binding signal of 1.17. The same measure for CTGACG: 1.1. On to CTACAT, for which the binding signal is 1.43. In turn, CCGGAT returned a binding signal of 2.98.

Take TATGTG: the binding signal was found to be 1.17. The same measure for TTATCG: 1.3. Sequence CTGAAA had a binding signal of 1.09. The same measure for ACCCAT: 1.24; for TACAGG: 1.08. TCCCCC gave a binding signal of 1.42. The same measure for TTTGAC: 1.55; for TTACCT: 1.35. The same measure for AACGGC: 1.22.

The values above are taken from PMC7862700.
